Measurements from publication PMC7084690, “N-terminal Backbone Pairing Shifts in CCL5-^12AAA^14 Dimer Interface: Structural Significance of the FAY Sequence” (International Journal of Molecular Sciences, 2020).
These are yes or no findings as the source states them, for the method shown. Some binding calls cover weakened binding; strength is not graded here.

Molecular target: T1, CCL5-F12A (human), P13501
T1 chain: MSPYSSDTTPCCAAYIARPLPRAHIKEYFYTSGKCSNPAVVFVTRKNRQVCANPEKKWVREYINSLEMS
Test: NMR titration; pH titration followed by 1H,15N-HSQC; this point pH 5.0 (for the wild type maintained until pH 6.0); 0.2 mM 15N-labelled protein, 25 mM sodium acetate, 150 mM NaCl, 10% D2O, 298 K; dimers to soluble oligomers, read from the loss of resonance intensity; both purified
Details: remark: other sources report otherwise

binding: binds
B1: CCL5-F12A, P13501 24-91 (natural protein)
chain: T1 chain
